Here are results for 1 substance from publication PMC13260904.

Protein sequences, listed by entry. Tags and fused reporters are not part of them.
UniProt Q13541: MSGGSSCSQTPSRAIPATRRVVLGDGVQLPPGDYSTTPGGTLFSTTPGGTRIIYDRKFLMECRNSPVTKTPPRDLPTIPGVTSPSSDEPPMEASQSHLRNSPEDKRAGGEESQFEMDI

No constants are given. Whether binding was seen depends on the method and setting. In cells and extracts the contact can be indirect. Some entries that bind do so weakly or less than the wild type.

The assay addresses myc-CUL3 (UniProt Q13618). Description: co-IP; SIRT2 knockdown HEK293T transfected with myc-CUL3 and Flag-4E-BP1 WT or K69R; MG132 for 3 h; freeze-thaw lysis in 50 mM Tris-HCl, 100 mM KCl, pH 7.5; anti-Myc antibody at 4 °C for 3 h, then protein A/G magnetic beads for 1 h; western blot. In general terms: A western blot detects proteins with antibodies after separation by electrophoresis.

“Flag-tagged 4E-BP1 (from UniProt Q13541 1-118)”: the binding entry was “binds”.
